Laboratory results taken from paper PMC7334503.
Results are given in words; binding and its absence hold for the method and conditions named. Binding seen in cells or lysates may run through a third protein. Here binding means that the protein was enriched with, or labelled near, the bait; the list need not be complete. For some of these results: A no says only that the protein was not detected with the bait. Where a sequence is shown, tags or fusion partners need not be part of it.

Key:
[1] = molecular target: T1, GFP-LD (Arabidopsis thaliana) (UniProt Q38796); assay: affinity purification with mass spectrometry; GFP purifications of GFP-LD and SDG26-GFP from transgenic Arabidopsis plants (GFP-Trap Magnetic Agarose), no cross-linking; Col-0 and a line expressing GFP alone as negative controls
T1 sequence: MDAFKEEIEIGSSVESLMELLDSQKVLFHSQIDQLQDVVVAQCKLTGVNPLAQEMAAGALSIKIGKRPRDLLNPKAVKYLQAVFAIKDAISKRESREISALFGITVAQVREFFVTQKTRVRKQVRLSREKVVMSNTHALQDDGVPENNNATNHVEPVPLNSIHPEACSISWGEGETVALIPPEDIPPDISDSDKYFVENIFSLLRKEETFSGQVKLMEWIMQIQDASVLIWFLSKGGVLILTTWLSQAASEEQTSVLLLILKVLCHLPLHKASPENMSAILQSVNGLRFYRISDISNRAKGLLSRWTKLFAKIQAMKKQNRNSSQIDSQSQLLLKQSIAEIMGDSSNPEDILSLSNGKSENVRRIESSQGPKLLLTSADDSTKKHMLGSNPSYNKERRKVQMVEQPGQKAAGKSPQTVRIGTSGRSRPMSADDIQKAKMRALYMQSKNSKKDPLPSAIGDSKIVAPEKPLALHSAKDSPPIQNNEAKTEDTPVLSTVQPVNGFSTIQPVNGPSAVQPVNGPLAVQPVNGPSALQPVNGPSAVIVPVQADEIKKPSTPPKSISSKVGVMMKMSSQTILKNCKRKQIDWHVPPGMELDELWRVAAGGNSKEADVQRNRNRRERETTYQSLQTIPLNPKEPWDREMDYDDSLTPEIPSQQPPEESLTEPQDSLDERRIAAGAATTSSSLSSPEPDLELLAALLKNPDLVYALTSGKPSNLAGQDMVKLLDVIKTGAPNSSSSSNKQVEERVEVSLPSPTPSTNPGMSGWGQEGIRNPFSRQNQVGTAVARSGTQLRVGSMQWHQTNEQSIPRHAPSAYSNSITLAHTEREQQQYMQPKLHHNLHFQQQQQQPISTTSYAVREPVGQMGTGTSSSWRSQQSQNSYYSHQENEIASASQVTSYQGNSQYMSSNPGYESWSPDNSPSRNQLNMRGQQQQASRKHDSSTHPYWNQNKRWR

[2] = molecular target: T2, FLD tagged at the carboxyl terminus with FLAG-TAP epitopes (FLD-FLAG-TAP) (Arabidopsis thaliana) (UniProt Q9CAE3); assay: affinity purification with mass spectrometry; FLD-FLAG-TAP immunopurified from a transgenic Arabidopsis line, no cross-linking; nontransgenic Col-0 as negative control
T2 sequence: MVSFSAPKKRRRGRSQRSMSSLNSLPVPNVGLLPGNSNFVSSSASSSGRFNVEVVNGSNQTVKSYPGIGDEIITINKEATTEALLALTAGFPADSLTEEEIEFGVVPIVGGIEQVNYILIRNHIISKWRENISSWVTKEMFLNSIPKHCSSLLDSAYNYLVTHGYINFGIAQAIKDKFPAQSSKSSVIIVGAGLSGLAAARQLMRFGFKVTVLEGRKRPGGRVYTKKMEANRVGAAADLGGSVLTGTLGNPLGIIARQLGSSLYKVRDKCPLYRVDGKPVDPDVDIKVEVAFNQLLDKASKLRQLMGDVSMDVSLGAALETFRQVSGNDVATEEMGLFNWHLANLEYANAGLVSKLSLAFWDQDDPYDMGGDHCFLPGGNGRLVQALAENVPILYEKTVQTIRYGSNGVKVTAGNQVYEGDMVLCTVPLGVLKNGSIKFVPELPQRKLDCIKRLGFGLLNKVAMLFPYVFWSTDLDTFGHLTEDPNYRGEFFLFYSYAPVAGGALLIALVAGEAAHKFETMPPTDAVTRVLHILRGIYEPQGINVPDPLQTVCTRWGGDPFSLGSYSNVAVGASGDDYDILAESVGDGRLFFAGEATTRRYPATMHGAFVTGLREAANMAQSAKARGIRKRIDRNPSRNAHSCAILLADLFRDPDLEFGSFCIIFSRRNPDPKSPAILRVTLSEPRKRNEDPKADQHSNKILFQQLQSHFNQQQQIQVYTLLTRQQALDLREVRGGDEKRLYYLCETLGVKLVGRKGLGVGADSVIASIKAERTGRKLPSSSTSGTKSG

[3] = molecular target: T3, SDG26-GFP (Arabidopsis thaliana) (UniProt Q84WW6); assay: affinity purification with mass spectrometry; cross-linked nuclear immunoprecipitation and mass spectrometry (CLNIP-MS) of SDG26 and of LD from transgenic Arabidopsis plants; Col-0 and a line expressing GFP alone as negative controls
T3 sequence: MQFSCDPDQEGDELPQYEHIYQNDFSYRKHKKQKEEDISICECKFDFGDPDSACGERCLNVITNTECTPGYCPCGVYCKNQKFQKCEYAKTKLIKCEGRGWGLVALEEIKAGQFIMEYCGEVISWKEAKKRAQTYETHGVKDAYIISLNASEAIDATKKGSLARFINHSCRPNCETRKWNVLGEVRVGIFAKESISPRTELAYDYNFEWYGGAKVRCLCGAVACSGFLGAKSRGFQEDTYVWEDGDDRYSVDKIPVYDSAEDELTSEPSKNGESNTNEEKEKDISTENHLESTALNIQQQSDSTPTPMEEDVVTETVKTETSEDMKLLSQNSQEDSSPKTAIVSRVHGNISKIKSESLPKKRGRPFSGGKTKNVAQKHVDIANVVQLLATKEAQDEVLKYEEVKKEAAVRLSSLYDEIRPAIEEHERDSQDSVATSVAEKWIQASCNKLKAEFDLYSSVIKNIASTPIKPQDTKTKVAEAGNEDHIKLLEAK

[4] = molecular target: T3, SDG26-GFP (Arabidopsis thaliana); assay: affinity purification with mass spectrometry; GFP purifications of GFP-LD and SDG26-GFP from transgenic Arabidopsis plants (GFP-Trap Magnetic Agarose), no cross-linking; Col-0 and a line expressing GFP alone as negative controls
[5] = molecular target: T1, GFP-LD (Arabidopsis thaliana); assay: affinity purification with mass spectrometry; cross-linked nuclear immunoprecipitation and mass spectrometry (CLNIP-MS) of SDG26 and of LD from transgenic Arabidopsis plants; Col-0 and a line expressing GFP alone as negative controls

SET DOMAIN GROUP 26 (SDG26) (endogenous) (from UniProt Q84WW6 1-492)
binding [1]: binds
binding [2]: binds

B1: LU… (LD) (endogenous) (protein, UniProt Q38796 1-953)
chain: MDAFKEEIEIGSSVESLMELLDSQKVLFHSQIDQLQDVVVAQCKLTGVNPLAQEMAAGALSIKIGKRPRDLLNPKAVKYLQAVFAIKDAISKRESREISALFGITVAQVREFFVTQKTRVRKQVRLSREKVVMSNTHALQDDGVPENNNATNHVEPVPLNSIHPEACSISWGEGETVALIPPEDIPPDISDSDKYFVENIFSLLRKEETFSGQVKLMEWIMQIQDASVLIWFLSKGGVLILTTWLSQAASEEQTSVLLLILKVLCHLPLHKASPENMSAILQSVNGLRFYRISDISNRAKGLLSRWTKLFAKIQAMKKQNRNSSQIDSQSQLLLKQSIAEIMGDSSNPEDILSLSNGKSENVRRIESSQGPKLLLTSADDSTKKHMLGSNPSYNKERRKVQMVEQPGQKAAGKSPQTVRIGTSGRSRPMSADDIQKAKMRALYMQSKNSKKDPLPSAIGDSKIVAPEKPLALHSAKDSPPIQNNEAKTEDTPVLSTVQPVNGFSTIQPVNGPSAVQPVNGPLAVQPVNGPSALQPVNGPSAVIVPVQADEIKKPSTPPKSISSKVGVMMKMSSQTILKNCKRKQIDWHVPPGMELDELWRVAAGGNSKEADVQRNRNRRERETTYQSLQTIPLNPKEPWDREMDYDDSLTPEIPSQQPPEESLTEPQDSLDERRIAAGAATTSSSLSSPEPDLELLAALLKNPDLVYALTSGKPSNLAGQDMVKLLDVIKTGAPNSSSSSNKQVEERVEVSLPSPTPSTNPGMSGWGQEGIRNPFSRQNQVGTAVARSGTQLRVGSMQWHQTNEQSIPRHAPSAYSNSITLAHTEREQQQYMQPKLHHNLHFQQQQQQPISTTSYAVREPVGQMGTGTSSSWRSQQSQNSYYSHQENEIASASQVTSYQGNSQYMSSNPGYESWSPDNSPSRNQLNMRGQQQQASRKHDSSTHPYWNQNKRWR
binding [3]: binds
binding [4]: binds
binding [2]: binds

B2: RRM-containing protein FPA (protein, UniProt Q8LPQ9 1-901)
chain: MALSMKPFRADDSGFQSNNLWVGSLTPETTESDLTELFGRYGDIDRITVYSSRGFAFIYYRHVEEAVAAKEALQGANLNGSQIKIEYARPAKPCKSLWVGGIGPNVSKDDLEEEFSKFGKIEDFRFLRERKTAFIDYYEMDDALQAKSMNGKPMGGSFLRVDFLRSQAPKKEQWAGSYDNRNGNMNHKPQYPHSYEDFKGDVQPSKVLWIGFPPTATQCNDEQILHNAMILFGEIERVKSYPSRNFALVEFRSAEEARQCKEGLQGRLFNNPRIKIMYSNDELPPEQDDTSFYSGMKRSRTDMFNNDPSFVSSPHSTGIPGSMRPLRGTNERSYNGAEYNDVVGKEPNWRRPSANGTGILPSPTGPGILPSPAQGTRRPMRSNPDSWEGYDPAQLVRESKRTRRDGSVDGFTPMGVDERSFGRGSVAARPIRGPPDSDHIWRGMIAKGGTPVCCARCVPMGKGIETKLPEVVNCSARTDLNMLAKHYAVAIGCEIVFFVPDREEDFASYTEFLRYLSSKDRAGVAKLDDGTTLFLVPPSDFLTDVLQVTRQERLYGVVLKLPPPAVPVTASYRQESQSNPLHYMDQARDSPANASHSLYPPRENYIRGAPEHLTAASKPSVSEPLRIPNNAAPQAGVSLTPELLATLASILPATSQPAAPESHQPMSGPSTVVSTAHQSNGLYNGEAPSQAWKRGPQTVHDASNQSFQQYGNQYTPAGQLPPPPSRYPPASNNPNYTSGMVHGNMQYQSQSVNMPQLSPLPNMPHNNYSMYTQGSSNHPVSQPMVQQYQPEASMPNQNYGPIPSYQQANFHGVTTNQAQNLNPSQFQAAMQPPADKANLEPQNQALRLQPMISGDGQGTTDGEVDKNQRYQSTLQFAANLLLQIQQKQQQQSSGTPAGQGP
binding [3]: binds
binding [5]: binds

B3: FY (WDR33) (protein, UniProt Q6NLV4 1-647)
chain: MYAGGDMHRGSQMPQPPMMRQSSASSTNINPDYHHPSGPFDPNVDSFGAKRMRKHTQRRAVDYTSTVVRYIQARTWQRDSRDRTTLQPTPAAAVDMLPTVAYSDNPSTSFAAKFVHASLNKNRCSINRVLWTPSGRRLITGSQSGEFTLWNGQSFNFEMILQAHDQPIRSMVWSHNENYMVSGDDGGTLKYWQNNMNNVKANKTAHKESIRDLSFCKTDLKFCSCSDDTTVKVWDFTKCVDESSLTGHGWDVKSVDWHPTKSLLVSGGKDQLVKLWDTRSGRELCSLHGHKNIVLSVKWNQNGNWLLTASKDQIIKLYDIRTMKELQSFRGHTKDVTSLAWHPCHEEYFVSGSSDGSICHWIVGHENPQIEIPNAHDNSVWDLAWHPIGYLLCSGSNDHTTKFWCRNRPADNPRDVLMQNQGYNEQGFGRQPDNFQPSEASPIPGAFVPGLTRNEGTIPGIGIAMPFDASSQGDHKQPLPGSMALGAPPLPPGPHPSLLGSGQQQGYQQQQQHQGHPQQMLPMPNMPHHQLPPSSHMPLHPHHLPRPMQMPPHGHMPPPSMPMSHQMPGSMGMQGGMNPQMSQSHFMGAPSGVFQGQPNSGGPQMYPQGRGGFNRPQMIPGYNNPFQQQQQPPLPPGPPPNNNQQHQ
binding [3]: binds
binding [5]: binds
binding [4]: no binding (only without cross-linking)

B4: FLD (endogenous) (protein, UniProt Q9CAE3 1-789)
chain: MVSFSAPKKRRRGRSQRSMSSLNSLPVPNVGLLPGNSNFVSSSASSSGRFNVEVVNGSNQTVKSYPGIGDEIITINKEATTEALLALTAGFPADSLTEEEIEFGVVPIVGGIEQVNYILIRNHIISKWRENISSWVTKEMFLNSIPKHCSSLLDSAYNYLVTHGYINFGIAQAIKDKFPAQSSKSSVIIVGAGLSGLAAARQLMRFGFKVTVLEGRKRPGGRVYTKKMEANRVGAAADLGGSVLTGTLGNPLGIIARQLGSSLYKVRDKCPLYRVDGKPVDPDVDIKVEVAFNQLLDKASKLRQLMGDVSMDVSLGAALETFRQVSGNDVATEEMGLFNWHLANLEYANAGLVSKLSLAFWDQDDPYDMGGDHCFLPGGNGRLVQALAENVPILYEKTVQTIRYGSNGVKVTAGNQVYEGDMVLCTVPLGVLKNGSIKFVPELPQRKLDCIKRLGFGLLNKVAMLFPYVFWSTDLDTFGHLTEDPNYRGEFFLFYSYAPVAGGALLIALVAGEAAHKFETMPPTDAVTRVLHILRGIYEPQGINVPDPLQTVCTRWGGDPFSLGSYSNVAVGASGDDYDILAESVGDGRLFFAGEATTRRYPATMHGAFVTGLREAANMAQSAKARGIRKRIDRNPSRNAHSCAILLADLFRDPDLEFGSFCIIFSRRNPDPKSPAILRVTLSEPRKRNEDPKADQHSNKILFQQLQSHFNQQQQIQVYTLLTRQQALDLREVRGGDEKRLYYLCETLGVKLVGRKGLGVGADSVIASIKAERTGRKLPSSSTSGTKSG
binding [3]: binds
binding [4]: binds
binding [1]: binds
